In patent publication US20160368993A1 (University of California, published 2016):
Results are given in words; binding and its absence hold for the method and conditions named. Some binding calls cover weakened binding; strength is not graded here.

Amino acid sequences for entries named in this document (tags omitted). A change or cut given only in a name is not applied to a line headed by its entry.
UniProt P06756: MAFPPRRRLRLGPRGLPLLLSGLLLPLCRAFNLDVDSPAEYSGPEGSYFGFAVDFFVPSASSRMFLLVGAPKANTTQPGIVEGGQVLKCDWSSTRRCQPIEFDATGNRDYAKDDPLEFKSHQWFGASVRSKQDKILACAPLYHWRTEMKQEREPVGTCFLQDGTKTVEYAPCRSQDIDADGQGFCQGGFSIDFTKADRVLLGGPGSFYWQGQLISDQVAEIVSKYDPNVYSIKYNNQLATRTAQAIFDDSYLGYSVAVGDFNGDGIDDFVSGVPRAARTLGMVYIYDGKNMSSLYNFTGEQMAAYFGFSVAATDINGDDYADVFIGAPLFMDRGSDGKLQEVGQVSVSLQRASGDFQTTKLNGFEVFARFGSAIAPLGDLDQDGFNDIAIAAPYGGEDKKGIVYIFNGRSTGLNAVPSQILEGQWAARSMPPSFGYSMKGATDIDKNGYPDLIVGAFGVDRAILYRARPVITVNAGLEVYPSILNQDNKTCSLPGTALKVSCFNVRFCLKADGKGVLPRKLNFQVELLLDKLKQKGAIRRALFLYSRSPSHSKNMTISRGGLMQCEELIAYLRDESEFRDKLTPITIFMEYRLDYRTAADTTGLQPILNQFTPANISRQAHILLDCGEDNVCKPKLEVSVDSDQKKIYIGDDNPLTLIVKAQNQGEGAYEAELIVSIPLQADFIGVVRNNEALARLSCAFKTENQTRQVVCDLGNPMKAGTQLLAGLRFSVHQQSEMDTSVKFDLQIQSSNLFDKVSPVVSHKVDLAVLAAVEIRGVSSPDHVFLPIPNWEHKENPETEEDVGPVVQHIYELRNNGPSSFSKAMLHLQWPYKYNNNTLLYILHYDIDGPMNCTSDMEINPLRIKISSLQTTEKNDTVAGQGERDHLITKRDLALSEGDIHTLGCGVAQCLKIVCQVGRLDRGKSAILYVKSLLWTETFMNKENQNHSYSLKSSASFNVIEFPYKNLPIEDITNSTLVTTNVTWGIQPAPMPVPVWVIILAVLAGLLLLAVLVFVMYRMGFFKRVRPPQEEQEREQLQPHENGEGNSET
UniProt P18564: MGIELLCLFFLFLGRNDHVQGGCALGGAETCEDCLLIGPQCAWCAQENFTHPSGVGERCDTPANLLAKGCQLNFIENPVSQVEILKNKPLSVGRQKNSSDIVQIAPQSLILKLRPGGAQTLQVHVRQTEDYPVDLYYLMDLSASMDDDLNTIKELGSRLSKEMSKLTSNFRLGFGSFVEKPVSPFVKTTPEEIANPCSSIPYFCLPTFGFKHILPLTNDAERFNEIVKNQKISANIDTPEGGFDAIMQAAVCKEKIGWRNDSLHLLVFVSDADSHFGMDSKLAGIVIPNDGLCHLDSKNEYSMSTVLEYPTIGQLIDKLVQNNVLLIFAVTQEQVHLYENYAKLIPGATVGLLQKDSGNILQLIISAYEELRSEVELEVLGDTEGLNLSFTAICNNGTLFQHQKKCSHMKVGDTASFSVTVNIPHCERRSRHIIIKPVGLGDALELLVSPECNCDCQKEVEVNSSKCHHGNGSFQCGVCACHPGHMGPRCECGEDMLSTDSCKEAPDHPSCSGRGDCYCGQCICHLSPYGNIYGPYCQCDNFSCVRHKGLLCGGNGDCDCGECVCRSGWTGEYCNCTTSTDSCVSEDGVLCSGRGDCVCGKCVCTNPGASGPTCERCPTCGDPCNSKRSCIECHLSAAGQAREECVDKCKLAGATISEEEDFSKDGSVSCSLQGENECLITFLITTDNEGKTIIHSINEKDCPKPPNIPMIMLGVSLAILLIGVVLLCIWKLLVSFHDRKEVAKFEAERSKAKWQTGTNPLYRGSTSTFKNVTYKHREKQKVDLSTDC

B1: anti-αvβ6 Cys-diabody (other)
scFv: EVQLVESGGGLVQPGGSLRLSCAASGFTFSRYVMSWVRQAPGKGLEWVASISSGGRMYYPDTVKGRFTISRDNAKNSLYLQMNSLRAEDTAVYYCARGSIYDGYYVFPYWGQGTLVTVSSGGSEIVLTQSPATLSLSPGERATLSCSASSSVSSSYLYWYQQKPGQAPRLLIYSTSNLASGIPARFSGSGSGTDFTLTISSLEPEDFAVYYCHQWSTYPPTFGGGTKVEIKHHHHHHGGC
modifications: C-terminal engineered cysteines of the two chains form an interchain disulfide
notes: Covalent dimer; also called disulfide-stabilized anti-αvβ6 Cys-diabody; B6DiaR-G2S-Cys
B2: anti-αvβ6 diabody (other)
scFv: EVQLVESGGGLVQPGGSLRLSCAASGFTFSRYVMSWVRQAPGKGLEWVASISSGGRMYYPDTVKGRFTISRDNAKNSLYLQMNSLRAEDTAVYYCARGSIYDGYYVFPYWGQGTLVTVSSGGSEIVLTQSPATLSLSPGERATLSCSASSSVSSSYLYWYQQKPGQAPRLLIYSTSNLASGIPARFSGSGSGTDFTLTISSLEPEDFAVYYCHQWSTYPPTFGGGTKVEIKHHHHHH
notes: Non-covalent dimer of two VH-G2S-VL-His6 chains (diabody), secreted from 293-F cells; also called B6DiaR-G2S; parental anti-αvβ6 diabody

What was measured:
[1] = biological target: T1, αvβ6 integrin on DX3Puroβ6 cells (human) (UniProt P06756+P18564); test: flow cytometry, summary
[2] = biological target: T1, αvβ6 integrin on DX3Puroβ6 cells (human); test: flow cytometry, FIGS. 11C and 11D
[3] = biological target: T2, αvβ6 integrin (R&D Systems), immobilized (UniProt P06756 31-992; P18564 22-707); test: competitive binding ELISA, summary
T2 construct: Bought protein captured on the plate by the anti-αv antibody P2W7; also called immobilized αvβ6 integrin

[4] = biological target: T1, αvβ6 integrin on DX3Puroβ6 cells (human); test: flow cytometry on DX3Puroβ6 and DX3Puro cells

| Binder | binding [1] | binding [2] | binding [3] | binding [4] |
| --- | --- | --- | --- | --- |
| B1 | binds | binds | binds | binds |
| B2 |  |  | binds |  |
